Test results taken from doi:10.1101/266833.

Assays:
Assay in all cases: affinity purification with mass spectrometry
Upf2-TAP (S. cerevisiae) = molecular target: T1, Upf2-TAP (S. cerevisiae) (UniProt P38798)
T1 sequence: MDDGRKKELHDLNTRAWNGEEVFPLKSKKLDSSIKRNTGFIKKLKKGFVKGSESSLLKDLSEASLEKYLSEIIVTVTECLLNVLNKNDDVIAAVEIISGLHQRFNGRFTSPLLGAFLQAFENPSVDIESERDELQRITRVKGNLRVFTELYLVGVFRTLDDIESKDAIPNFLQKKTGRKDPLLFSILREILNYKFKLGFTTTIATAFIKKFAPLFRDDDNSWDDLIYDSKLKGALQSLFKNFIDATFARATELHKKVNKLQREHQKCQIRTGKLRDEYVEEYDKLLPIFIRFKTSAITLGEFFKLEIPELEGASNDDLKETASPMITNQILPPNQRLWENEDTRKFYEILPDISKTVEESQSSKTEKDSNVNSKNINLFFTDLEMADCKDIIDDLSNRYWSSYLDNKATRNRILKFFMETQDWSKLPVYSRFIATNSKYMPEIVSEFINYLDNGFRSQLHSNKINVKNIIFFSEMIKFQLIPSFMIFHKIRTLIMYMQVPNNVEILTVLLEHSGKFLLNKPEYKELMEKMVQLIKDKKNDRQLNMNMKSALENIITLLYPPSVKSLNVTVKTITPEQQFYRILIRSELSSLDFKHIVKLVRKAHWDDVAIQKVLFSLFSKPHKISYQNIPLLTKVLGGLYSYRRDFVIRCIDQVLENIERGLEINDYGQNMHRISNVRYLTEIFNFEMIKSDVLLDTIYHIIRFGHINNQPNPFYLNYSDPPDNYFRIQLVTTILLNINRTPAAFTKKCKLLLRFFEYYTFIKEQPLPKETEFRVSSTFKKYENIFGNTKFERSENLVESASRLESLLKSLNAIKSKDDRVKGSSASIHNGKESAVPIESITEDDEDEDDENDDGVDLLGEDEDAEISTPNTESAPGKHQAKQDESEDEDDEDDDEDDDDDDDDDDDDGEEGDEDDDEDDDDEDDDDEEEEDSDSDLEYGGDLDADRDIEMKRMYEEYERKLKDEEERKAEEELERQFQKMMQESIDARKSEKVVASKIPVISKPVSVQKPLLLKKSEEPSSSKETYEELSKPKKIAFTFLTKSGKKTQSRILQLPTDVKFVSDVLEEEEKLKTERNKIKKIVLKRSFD

Ebs1-TAP (S. cerevisiae) = molecular target: T2, Ebs1-TAP (S. cerevisiae) (UniProt Q03466)
T2 sequence: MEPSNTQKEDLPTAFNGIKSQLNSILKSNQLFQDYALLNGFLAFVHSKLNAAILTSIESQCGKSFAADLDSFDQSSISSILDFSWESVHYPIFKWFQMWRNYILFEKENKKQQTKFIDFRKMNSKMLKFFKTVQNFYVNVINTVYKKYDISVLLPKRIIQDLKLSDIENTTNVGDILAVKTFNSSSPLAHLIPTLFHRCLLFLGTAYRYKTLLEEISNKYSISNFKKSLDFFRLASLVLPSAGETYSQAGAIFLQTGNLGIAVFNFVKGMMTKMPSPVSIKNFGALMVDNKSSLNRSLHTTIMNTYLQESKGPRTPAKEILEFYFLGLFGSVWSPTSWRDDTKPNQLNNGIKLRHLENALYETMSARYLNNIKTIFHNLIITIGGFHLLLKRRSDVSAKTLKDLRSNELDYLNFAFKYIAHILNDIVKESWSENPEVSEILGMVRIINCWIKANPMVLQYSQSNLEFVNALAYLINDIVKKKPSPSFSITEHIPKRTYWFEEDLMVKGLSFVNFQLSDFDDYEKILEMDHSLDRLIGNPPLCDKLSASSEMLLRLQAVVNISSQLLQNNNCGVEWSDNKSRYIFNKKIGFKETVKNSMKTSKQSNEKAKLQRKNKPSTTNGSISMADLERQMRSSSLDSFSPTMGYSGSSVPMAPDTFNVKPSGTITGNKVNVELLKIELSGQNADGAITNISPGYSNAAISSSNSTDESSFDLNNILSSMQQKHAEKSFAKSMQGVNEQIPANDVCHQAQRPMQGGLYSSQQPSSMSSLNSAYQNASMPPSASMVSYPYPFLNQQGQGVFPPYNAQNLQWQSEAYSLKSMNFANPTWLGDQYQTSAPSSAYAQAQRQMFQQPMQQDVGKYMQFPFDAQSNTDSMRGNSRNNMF

Dcp1-TAP (S. cerevisiae) = molecular target: T3, Dcp1-TAP (S. cerevisiae) (UniProt Q12517)
T3 sequence: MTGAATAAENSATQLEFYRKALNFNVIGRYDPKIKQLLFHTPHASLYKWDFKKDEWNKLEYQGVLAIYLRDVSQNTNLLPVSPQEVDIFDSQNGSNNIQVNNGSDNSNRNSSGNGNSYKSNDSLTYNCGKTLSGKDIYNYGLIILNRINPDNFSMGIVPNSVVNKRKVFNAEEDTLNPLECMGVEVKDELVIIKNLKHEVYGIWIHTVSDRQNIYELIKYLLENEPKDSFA

[1] = molecular target: T4, Hrr25-TAP (S. cerevisiae) (UniProt P29295)
T4 sequence: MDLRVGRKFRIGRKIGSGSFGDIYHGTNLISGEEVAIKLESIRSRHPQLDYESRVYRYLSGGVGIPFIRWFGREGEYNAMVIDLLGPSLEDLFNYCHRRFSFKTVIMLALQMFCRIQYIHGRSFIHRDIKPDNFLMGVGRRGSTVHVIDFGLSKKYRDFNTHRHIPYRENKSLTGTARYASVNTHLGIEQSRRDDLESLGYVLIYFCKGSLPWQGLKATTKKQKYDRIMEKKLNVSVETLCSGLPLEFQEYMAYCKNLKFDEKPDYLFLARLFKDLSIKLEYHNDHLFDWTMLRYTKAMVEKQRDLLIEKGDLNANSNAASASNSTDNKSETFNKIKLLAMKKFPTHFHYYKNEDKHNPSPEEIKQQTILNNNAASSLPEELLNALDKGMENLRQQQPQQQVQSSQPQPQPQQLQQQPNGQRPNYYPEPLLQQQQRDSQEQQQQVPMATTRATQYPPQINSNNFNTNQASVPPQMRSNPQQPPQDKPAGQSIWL

Nmd4-TAP (S. cerevisiae) = molecular target: T5, Nmd4-TAP (S. cerevisiae) (UniProt Q12129)
T5 sequence: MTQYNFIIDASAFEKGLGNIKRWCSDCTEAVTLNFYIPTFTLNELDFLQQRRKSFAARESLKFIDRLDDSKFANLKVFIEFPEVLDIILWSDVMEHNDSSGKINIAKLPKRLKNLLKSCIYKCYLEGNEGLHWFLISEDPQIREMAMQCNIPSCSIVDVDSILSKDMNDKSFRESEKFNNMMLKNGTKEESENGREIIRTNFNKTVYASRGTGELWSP

Upf3-TAP (S. cerevisiae) = molecular target: T6, Upf3-TAP (S. cerevisiae) (UniProt P48412)
T6 sequence: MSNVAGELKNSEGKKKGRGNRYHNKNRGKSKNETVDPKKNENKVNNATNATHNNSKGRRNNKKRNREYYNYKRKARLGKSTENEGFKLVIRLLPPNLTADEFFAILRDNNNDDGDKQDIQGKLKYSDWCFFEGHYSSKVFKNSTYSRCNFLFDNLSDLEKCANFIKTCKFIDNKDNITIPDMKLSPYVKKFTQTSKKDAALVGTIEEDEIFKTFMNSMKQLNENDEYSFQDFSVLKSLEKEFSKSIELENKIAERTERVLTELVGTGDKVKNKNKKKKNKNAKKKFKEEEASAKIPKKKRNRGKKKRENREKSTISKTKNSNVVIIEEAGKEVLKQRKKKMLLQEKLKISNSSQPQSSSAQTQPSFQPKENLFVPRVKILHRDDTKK

B1: Upf3 (protein, UniProt P48412 1-387)
chain: T6 sequence
Upf2-TAP (S. cerevisiae)
  binding: binds
Ebs1-TAP (S. cerevisiae)
  binding: no binding
Dcp1-TAP (S. cerevisiae)
  binding: no binding
[1]
  binding: no binding
Nmd4-TAP (S. cerevisiae)
  binding: no binding

B2: Upf2 (protein, UniProt P38798 1-1089)
chain: T1 sequence
Ebs1-TAP (S. cerevisiae)
  binding: no binding
Upf3-TAP (S. cerevisiae)
  binding: binds
Dcp1-TAP (S. cerevisiae)
  binding: no binding
[1]
  binding: no binding
Nmd4-TAP (S. cerevisiae)
  binding: no binding

No constants are given. Whether binding was seen depends on the method and setting. In cells and extracts the contact can be indirect. A yes stands for co-enrichment or nearness to the bait. Other partners may have been found. For some of these results: No binding means not detected with the bait.
